{"source": "the supplement of paper PMC8728848", "assay_in_all_cases": "glycan array binding signal (z-score within array); higher = stronger binding", "conditions_in_all_cases": "glycan notation: IUPAC condensed, linker removed", "key": {"[1]": {"target": "Fuc(a1-2)Gal", "how_it_was_run": "(§1)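 Columns mapping to the same glycan were averaged after glycan names were converted to IUPAC-condensed notation. The data come from 3228 arrays in the Consortium for Functional Glycomics database, limited to those with an available protein sequence. Binding is reported as a within-array Z-score averaged across arrays of one protein sequence and across linkers.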"}, "[2]": {"target": "Fuc(a1-2)Gal(b1-3)GalNAc", "how_it_was_run": "as §1"}, "[3]": {"target": "Fuc(a1-2)Gal(b1-3)GalNAc(a1-3)[Fuc(a1-2)]Gal(b1-4)Glc", "how_it_was_run": "as §1"}, "[4]": {"target": "Fuc(a1-2)Gal(b1-3)GalNAc(a1-3)[Fuc(a1-2)]Gal(b1-4)GlcNAc", "how_it_was_run": "as §1"}, "[5]": {"target": "Fuc(a1-2)Gal(b1-3)GalNAc(b1-3)Gal", "how_it_was_run": "as §1"}, "[6]": {"target": "Fuc(a1-2)Gal(b1-3)GalNAc(b1-3)Gal(a1-4)Gal(b1-4)Glc", "how_it_was_run": "as §1"}, "[7]": {"target": "Fuc(a1-2)Gal(b1-3)GalNAc(b1-4)[Neu5Ac(a2-3)]Gal(b1-4)Glc", "how_it_was_run": "as §1"}, "[8]": {"target": "Fuc(a1-2)Gal(b1-3)GlcNAc", "how_it_was_run": "as §1"}, "[9]": {"target": "Fuc(a1-2)Gal(b1-3)GlcNAc(b1-2)Man(a1-3)[Fuc(a1-2)Gal(b1-3)GlcNAc(b1-2)Man(a1-6)]Man(b1-4)GlcNAc(b1-4)GlcNAc", "how_it_was_run": "as §1"}, "[10]": {"target": "Fuc(a1-2)Gal(b1-3)GlcNAc(b1-2)Man(a1-3)[Fuc(a1-2)Gal(b1-3)GlcNAc(b1-2)Man(a1-6)]Man(b1-4)GlcNAc(b1-4)[Fuc(a1-6)]GlcNAc", "how_it_was_run": "as §1"}, "[11]": {"target": "Fuc(a1-2)Gal(b1-3)GlcNAc(b1-3)Gal(b1-4)Glc", "how_it_was_run": "as §1"}, "[12]": {"target": "Fuc(a1-2)Gal(b1-3)GlcNAc(b1-3)GalNAc", "how_it_was_run": "as §1"}, "[13]": {"target": "Fuc(a1-2)Gal(b1-3)GlcNAc(b1-3)[Fuc(a1-2)Gal(b1-3)GlcNAc(b1-6)]GalNAc", "how_it_was_run": "as §1"}, "[14]": {"target": "Fuc(a1-2)Gal(b1-3)GlcNAc(b1-3)[Gal(b1-4)GlcNAc(b1-6)]Gal(b1-4)Glc", "how_it_was_run": "as §1"}, "[15]": {"target": "Fuc(a1-2)Gal(b1-3)GlcNAc(b1-3)[Neu5Ac(a2-6)Gal(b1-4)GlcNAc(b1-6)]Gal(b1-4)Glc", "how_it_was_run": "as §1"}, "[16]": {"target": "Fuc(a1-2)Gal(b1-3)GlcNAc6S", "how_it_was_run": "as §1"}, "[17]": {"target": "Fuc(a1-2)Gal(b1-3)[Fuc(a1-4)]GlcNAc", "how_it_was_run": "as §1"}, "[18]": {"target": "Fuc(a1-2)Gal(b1-3)[Fuc(a1-4)]GlcNAc(b1-2)Man(a1-3)[Fuc(a1-2)Gal(b1-3)[Fuc(a1-4)]GlcNAc(b1-2)Man(a1-3)]Man(b1-4)GlcNAc(b1-4)GlcNAc", "how_it_was_run": "as §1"}, "[19]": {"target": "Fuc(a1-2)Gal(b1-3)[Fuc(a1-4)]GlcNAc(b1-2)Man(a1-3)[Fuc(a1-2)Gal(b1-3)[Fuc(a1-4)]GlcNAc(b1-2)Man(a1-6)]Man(b1-4)GlcNAc(b1-4)[Fuc(a1-6)]GlcNAc(b1-4)[Fuc(a1-6)]GlcNAc", "how_it_was_run": "as §1"}, "[20]": {"target": "Fuc(a1-2)Gal(b1-3)[Fuc(a1-4)]GlcNAc(b1-3)[Fuc(a1-3)[Gal(b1-4)]GlcNAc(b1-6)]Gal(b1-4)Glc", "how_it_was_run": "as §1"}, "[21]": {"target": "Fuc(a1-2)Gal(b1-3)[Fuc(a1-4)]GlcNAc(b1-3)[Gal(b1-4)GlcNAc(b1-6)]Gal(b1-4)Glc", "how_it_was_run": "as §1"}, "[22]": {"target": "Fuc(a1-2)Gal(b1-4)Glc", "how_it_was_run": "as §1"}, "[23]": {"target": "Fuc(a1-2)Gal(b1-4)Glc6S", "how_it_was_run": "as §1"}, "[24]": {"target": "Fuc(a1-2)Gal(b1-4)GlcNAc", "how_it_was_run": "as §1"}, "[25]": {"target": "Fuc(a1-2)Gal(b1-4)GlcNAc(b1-2)Man", "how_it_was_run": "as §1"}, "[26]": {"target": "Fuc(a1-2)Gal(b1-4)GlcNAc(b1-2)Man(a1-3)[Fuc(a1-2)Gal(b1-4)GlcNAc(b1-2)Man(a1-6)]Man(b1-4)GlcNAc(b1-4)GlcNAc", "how_it_was_run": "as §1"}, "[27]": {"target": "Fuc(a1-2)Gal(b1-4)GlcNAc(b1-2)Man(a1-3)[Fuc(a1-2)Gal(b1-4)GlcNAc(b1-2)Man(a1-6)]Man(b1-4)GlcNAc(b1-4)[Fuc(a1-6)]GlcNAc", "how_it_was_run": "as §1"}, "[28]": {"target": "Fuc(a1-2)Gal(b1-4)GlcNAc(b1-2)[Fuc(a1-2)Gal(b1-4)GlcNAc(b1-4)]Man(a1-3)[Fuc(a1-2)Gal(b1-4)GlcNAc(b1-2)Man(a1-6)]Man(b1-4)GlcNAc(b1-4)GlcNAc", "how_it_was_run": "as §1"}, "[29]": {"target": "Fuc(a1-2)Gal(b1-4)GlcNAc(b1-3)Gal(b1-4)GlcNAc", "how_it_was_run": "as §1"}, "[30]": {"target": "Fuc(a1-2)Gal(b1-4)GlcNAc(b1-3)Gal(b1-4)GlcNAc(b1-2)Man(a1-3)[Fuc(a1-2)Gal(b1-4)GlcNAc(b1-3)Gal(b1-4)GlcNAc(b1-2)Man(a1-6)]Man(b1-4)GlcNAc(b1-4)GlcNAc", "how_it_was_run": "as §1"}, "[31]": {"target": "Fuc(a1-2)Gal(b1-4)GlcNAc(b1-3)Gal(b1-4)GlcNAc(b1-3)Gal(b1-4)GlcNAc", "how_it_was_run": "as §1"}, "[32]": {"target": "Fuc(a1-2)Gal(b1-4)GlcNAc(b1-3)GalNAc", "how_it_was_run": "as §1"}, "[33]": {"target": "Fuc(a1-2)Gal(b1-4)GlcNAc(b1-3)[Fuc(a1-2)Gal(b1-4)GlcNAc(b1-6)]GalNAc", "how_it_was_run": "as §1"}, "[34]": {"target": "Fuc(a1-2)Gal(b1-4)GlcNAc(b1-3)[Fuc(a1-3)[Gal(b1-4)]GlcNAc(b1-6)]Gal(b1-4)Glc", "how_it_was_run": "as §1"}, "[35]": {"target": "Fuc(a1-2)Gal(b1-4)GlcNAc(b1-6)GalNAc", "how_it_was_run": "as §1"}, "[36]": {"target": "Fuc(a1-2)Gal(b1-4)GlcNAc6S", "how_it_was_run": "as §1"}, "[37]": {"target": "Fuc(a1-2)Gal(b1-4)[Fuc(a1-3)]GlcNAc", "how_it_was_run": "as §1"}, "[38]": {"target": "Fuc(a1-2)Gal(b1-4)[Fuc(a1-3)]GlcNAc(b1-2)Man(a1-3)[Fuc(a1-2)Gal(b1-4)[Fuc(a1-3)]GlcNAc(b1-2)Man(a1-6)]Man(b1-4)GlcNAc(b1-4)[Fuc(a1-6)]GlcNAc", "how_it_was_run": "as §1"}, "[39]": {"target": "Fuc(a1-2)Gal(b1-4)[Fuc(a1-3)]GlcNAc(b1-2)[Fuc(a1-2)Gal(b1-4)[Fuc(a1-3)]GlcNAc(b1-4)]Man(a1-3)[Fuc(a1-2)Gal(b1-4)[Fuc(a1-3)]GlcNAc(b1-2)Man(a1-6)]Man(b1-4)GlcNAc(b1-4)GlcNAc", "how_it_was_run": "as §1"}, "[40]": {"target": "Fuc(a1-2)Gal(b1-4)[Fuc(a1-3)]GlcNAc(b1-3)Gal(b1-4)[Fuc(a1-3)]GlcNAc", "how_it_was_run": "as §1"}, "[41]": {"target": "Fuc(a1-2)Gal(b1-4)[Fuc(a1-3)]GlcNAc(b1-3)Gal(b1-4)[Fuc(a1-3)]GlcNAc(b1-3)Gal(b1-4)[Fuc(a1-3)]GlcNAc", "how_it_was_run": "as §1"}, "[42]": {"target": "Fuc(a1-2)Gal(b1-4)[Fuc(a1-3)]GlcNAc(b1-3)GalNAc", "how_it_was_run": "as §1"}, "[43]": {"target": "Fuc(a1-2)Gal(b1-4)[Fuc(a1-3)]GlcNAc(b1-3)[Neu5Ac(a2-6)Gal(b1-4)GlcNAc(b1-6)]Gal(b1-4)Glc", "how_it_was_run": "as §1"}, "[44]": {"target": "Fuc(a1-2)Gal3S(b1-4)GlcNAc", "how_it_was_run": "as §1"}, "[45]": {"target": "Fuc(a1-2)Gal6S(b1-3)GlcNAc", "how_it_was_run": "as §1"}}, "note": "This is one part of the list."}
{"binder": "Mermaid1 (Stilbonema majum) (protein) MGSSHHHHHHSSGLVPRGSHMAASGWLRSPQGTVVKLYRRSLSWSKADEFCKDVDGRLVVDRTADMHLFLIKNVLKEKKSRVWVGLRRTAPHSRTWIWSDGTRQNEDDLDANLWLRDEPNDAAGEEECALFMYSPWEKAWGLNDYLCRGGCRSYQFICEKWIR", "values": [{"measurement": "glycan array binding signal (z-score)", "setting": "[1]", "result": 0.333}, {"measurement": "glycan array binding signal (z-score)", "setting": "[2]", "result": -0.564}, {"measurement": "glycan array binding signal (z-score)", "setting": "[3]", "result": -0.132}, {"measurement": "glycan array binding signal (z-score)", "setting": "[4]", "result": -1.01}, {"measurement": "glycan array binding signal (z-score)", "setting": "[5]", "result": -0.184}, {"measurement": "glycan array binding signal (z-score)", "setting": "[6]", "result": -0.588}, {"measurement": "glycan array binding signal (z-score)", "setting": "[7]", "result": -0.077}, {"measurement": "glycan array binding signal (z-score)", "setting": "[8]", "result": -0.485}, {"measurement": "glycan array binding signal (z-score)", "setting": "[9]", "result": 1.45}, {"measurement": "glycan array binding signal (z-score)", "setting": "[10]", "result": 0.195}, {"measurement": "glycan array binding signal (z-score)", "setting": "[11]", "result": -0.434}, {"measurement": "glycan array binding signal (z-score)", "setting": "[12]", "result": -0.234}, {"measurement": "glycan array binding signal (z-score)", "setting": "[13]", "result": 0.957}, {"measurement": "glycan array binding signal (z-score)", "setting": "[14]", "result": -0.999}, {"measurement": "glycan array binding signal (z-score)", "setting": "[15]", "result": -0.551}, {"measurement": "glycan array binding signal (z-score)", "setting": "[16]", "result": -0.184}, {"measurement": "glycan array binding signal (z-score)", "setting": "[17]", "result": -0.578}, {"measurement": "glycan array binding signal (z-score)", "setting": "[18]", "result": 0.204}, {"measurement": "glycan array binding signal (z-score)", "setting": "[19]", "result": -0.433}, {"measurement": "glycan array binding signal (z-score)", "setting": "[20]", "result": -0.948}, {"measurement": "glycan array binding signal (z-score)", "setting": "[21]", "result": -0.711}, {"measurement": "glycan array binding signal (z-score)", "setting": "[22]", "result": -0.648}, {"measurement": "glycan array binding signal (z-score)", "setting": "[23]", "result": 2.97}, {"measurement": "glycan array binding signal (z-score)", "setting": "[24]", "result": -0.703}, {"measurement": "glycan array binding signal (z-score)", "setting": "[25]", "result": -0.596}, {"measurement": "glycan array binding signal (z-score)", "setting": "[26]", "result": -0.371}, {"measurement": "glycan array binding signal (z-score)", "setting": "[27]", "result": 3.06}, {"measurement": "glycan array binding signal (z-score)", "setting": "[28]", "result": -0.173}, {"measurement": "glycan array binding signal (z-score)", "setting": "[29]", "result": 0.508}, {"measurement": "glycan array binding signal (z-score)", "setting": "[30]", "result": 1.14}, {"measurement": "glycan array binding signal (z-score)", "setting": "[31]", "result": -0.63}, {"measurement": "glycan array binding signal (z-score)", "setting": "[32]", "result": -0.716}, {"measurement": "glycan array binding signal (z-score)", "setting": "[33]", "result": -0.21}, {"measurement": "glycan array binding signal (z-score)", "setting": "[34]", "result": 0.017}, {"measurement": "glycan array binding signal (z-score)", "setting": "[35]", "result": -0.219}, {"measurement": "glycan array binding signal (z-score)", "setting": "[36]", "result": -0.921}, {"measurement": "glycan array binding signal (z-score)", "setting": "[37]", "result": 0}, {"measurement": "glycan array binding signal (z-score)", "setting": "[38]", "result": -0.053}, {"measurement": "glycan array binding signal (z-score)", "setting": "[39]", "result": -0.72}, {"measurement": "glycan array binding signal (z-score)", "setting": "[40]", "result": -0.562}, {"measurement": "glycan array binding signal (z-score)", "setting": "[41]", "result": -0.519}, {"measurement": "glycan array binding signal (z-score)", "setting": "[42]", "result": -0.868}, {"measurement": "glycan array binding signal (z-score)", "setting": "[43]", "result": 0.613}, {"measurement": "glycan array binding signal (z-score)", "setting": "[44]", "result": 0.061}, {"measurement": "glycan array binding signal (z-score)", "setting": "[45]", "result": -0.404}]}
